The values below come from PMC3060874.

Amino acid sequences for entries named in this document (tags omitted). A change or cut given only in a name is not applied to a line headed by its entry. Chains listed by the source or under a name are the forms on record and can include a tag or linker.
UniProt O94953: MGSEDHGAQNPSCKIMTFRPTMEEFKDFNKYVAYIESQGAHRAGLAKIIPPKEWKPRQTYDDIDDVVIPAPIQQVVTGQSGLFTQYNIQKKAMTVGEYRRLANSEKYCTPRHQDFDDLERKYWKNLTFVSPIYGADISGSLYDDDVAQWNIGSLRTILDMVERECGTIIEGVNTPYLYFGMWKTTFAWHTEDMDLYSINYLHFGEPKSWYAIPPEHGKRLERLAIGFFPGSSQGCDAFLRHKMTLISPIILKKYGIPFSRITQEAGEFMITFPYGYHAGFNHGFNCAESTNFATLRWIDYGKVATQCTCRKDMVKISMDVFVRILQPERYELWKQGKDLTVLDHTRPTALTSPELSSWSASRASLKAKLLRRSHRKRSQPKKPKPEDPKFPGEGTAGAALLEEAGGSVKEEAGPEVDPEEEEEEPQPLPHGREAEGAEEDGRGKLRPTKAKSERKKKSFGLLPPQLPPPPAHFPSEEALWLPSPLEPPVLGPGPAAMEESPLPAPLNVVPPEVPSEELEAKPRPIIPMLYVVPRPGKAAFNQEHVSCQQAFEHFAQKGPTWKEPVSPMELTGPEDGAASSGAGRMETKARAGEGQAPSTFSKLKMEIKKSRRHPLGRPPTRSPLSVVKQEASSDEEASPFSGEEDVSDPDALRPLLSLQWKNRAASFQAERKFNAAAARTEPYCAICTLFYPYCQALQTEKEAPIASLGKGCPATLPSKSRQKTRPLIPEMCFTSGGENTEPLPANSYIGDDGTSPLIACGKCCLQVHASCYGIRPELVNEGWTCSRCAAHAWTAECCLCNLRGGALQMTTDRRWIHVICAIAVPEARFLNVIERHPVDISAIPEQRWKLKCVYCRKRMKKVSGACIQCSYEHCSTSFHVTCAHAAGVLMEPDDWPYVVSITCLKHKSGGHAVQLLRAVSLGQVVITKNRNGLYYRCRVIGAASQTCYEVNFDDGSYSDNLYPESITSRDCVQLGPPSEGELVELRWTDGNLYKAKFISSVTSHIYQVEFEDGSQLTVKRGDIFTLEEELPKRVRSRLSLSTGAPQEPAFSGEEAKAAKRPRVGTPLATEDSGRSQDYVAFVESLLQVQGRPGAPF
FLAG-ΔFeJMJD2B (O94953, form named): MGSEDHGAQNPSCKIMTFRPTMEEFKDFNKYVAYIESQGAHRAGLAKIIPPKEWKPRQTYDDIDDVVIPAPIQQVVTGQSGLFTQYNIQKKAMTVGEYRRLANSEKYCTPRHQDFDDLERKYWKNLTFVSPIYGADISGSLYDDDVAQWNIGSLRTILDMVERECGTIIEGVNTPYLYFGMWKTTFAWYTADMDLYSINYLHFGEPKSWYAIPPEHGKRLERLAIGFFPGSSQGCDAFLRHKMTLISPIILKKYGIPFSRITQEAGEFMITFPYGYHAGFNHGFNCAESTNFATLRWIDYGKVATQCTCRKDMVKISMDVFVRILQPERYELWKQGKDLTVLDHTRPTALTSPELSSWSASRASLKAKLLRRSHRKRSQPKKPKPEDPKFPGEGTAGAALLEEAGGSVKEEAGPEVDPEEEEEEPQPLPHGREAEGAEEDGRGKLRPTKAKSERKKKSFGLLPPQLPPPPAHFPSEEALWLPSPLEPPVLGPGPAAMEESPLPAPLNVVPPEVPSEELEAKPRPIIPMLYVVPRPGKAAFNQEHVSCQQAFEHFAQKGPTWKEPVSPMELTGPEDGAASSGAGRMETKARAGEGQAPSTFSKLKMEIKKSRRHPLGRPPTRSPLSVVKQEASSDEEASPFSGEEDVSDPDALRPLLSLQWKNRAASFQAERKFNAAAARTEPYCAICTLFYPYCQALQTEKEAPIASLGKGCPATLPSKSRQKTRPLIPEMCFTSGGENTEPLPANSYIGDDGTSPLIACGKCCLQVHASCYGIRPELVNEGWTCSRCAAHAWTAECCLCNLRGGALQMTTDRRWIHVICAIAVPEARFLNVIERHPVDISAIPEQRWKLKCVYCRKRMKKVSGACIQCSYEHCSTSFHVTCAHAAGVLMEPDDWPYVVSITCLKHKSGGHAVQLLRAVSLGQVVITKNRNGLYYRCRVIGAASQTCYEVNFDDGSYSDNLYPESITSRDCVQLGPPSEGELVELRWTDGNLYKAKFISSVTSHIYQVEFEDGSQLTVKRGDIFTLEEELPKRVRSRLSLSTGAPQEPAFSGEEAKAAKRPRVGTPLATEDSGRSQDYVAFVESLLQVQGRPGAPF
UniProt P03372: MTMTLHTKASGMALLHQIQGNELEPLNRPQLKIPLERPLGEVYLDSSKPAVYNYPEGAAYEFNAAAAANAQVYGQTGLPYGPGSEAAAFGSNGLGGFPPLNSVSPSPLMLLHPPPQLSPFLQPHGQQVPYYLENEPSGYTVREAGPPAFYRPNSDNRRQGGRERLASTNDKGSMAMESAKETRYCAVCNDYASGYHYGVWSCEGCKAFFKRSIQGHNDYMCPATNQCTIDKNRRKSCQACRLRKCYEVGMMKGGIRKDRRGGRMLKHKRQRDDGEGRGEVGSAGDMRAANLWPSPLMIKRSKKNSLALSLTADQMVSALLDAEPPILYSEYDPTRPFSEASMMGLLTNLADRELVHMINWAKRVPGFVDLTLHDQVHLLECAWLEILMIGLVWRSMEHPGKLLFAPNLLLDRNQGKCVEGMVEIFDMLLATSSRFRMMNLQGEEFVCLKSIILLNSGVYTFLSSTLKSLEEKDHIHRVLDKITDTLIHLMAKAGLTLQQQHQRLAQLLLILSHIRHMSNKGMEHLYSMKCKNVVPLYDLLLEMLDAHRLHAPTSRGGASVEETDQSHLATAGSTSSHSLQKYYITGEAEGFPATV
UniProt P51532: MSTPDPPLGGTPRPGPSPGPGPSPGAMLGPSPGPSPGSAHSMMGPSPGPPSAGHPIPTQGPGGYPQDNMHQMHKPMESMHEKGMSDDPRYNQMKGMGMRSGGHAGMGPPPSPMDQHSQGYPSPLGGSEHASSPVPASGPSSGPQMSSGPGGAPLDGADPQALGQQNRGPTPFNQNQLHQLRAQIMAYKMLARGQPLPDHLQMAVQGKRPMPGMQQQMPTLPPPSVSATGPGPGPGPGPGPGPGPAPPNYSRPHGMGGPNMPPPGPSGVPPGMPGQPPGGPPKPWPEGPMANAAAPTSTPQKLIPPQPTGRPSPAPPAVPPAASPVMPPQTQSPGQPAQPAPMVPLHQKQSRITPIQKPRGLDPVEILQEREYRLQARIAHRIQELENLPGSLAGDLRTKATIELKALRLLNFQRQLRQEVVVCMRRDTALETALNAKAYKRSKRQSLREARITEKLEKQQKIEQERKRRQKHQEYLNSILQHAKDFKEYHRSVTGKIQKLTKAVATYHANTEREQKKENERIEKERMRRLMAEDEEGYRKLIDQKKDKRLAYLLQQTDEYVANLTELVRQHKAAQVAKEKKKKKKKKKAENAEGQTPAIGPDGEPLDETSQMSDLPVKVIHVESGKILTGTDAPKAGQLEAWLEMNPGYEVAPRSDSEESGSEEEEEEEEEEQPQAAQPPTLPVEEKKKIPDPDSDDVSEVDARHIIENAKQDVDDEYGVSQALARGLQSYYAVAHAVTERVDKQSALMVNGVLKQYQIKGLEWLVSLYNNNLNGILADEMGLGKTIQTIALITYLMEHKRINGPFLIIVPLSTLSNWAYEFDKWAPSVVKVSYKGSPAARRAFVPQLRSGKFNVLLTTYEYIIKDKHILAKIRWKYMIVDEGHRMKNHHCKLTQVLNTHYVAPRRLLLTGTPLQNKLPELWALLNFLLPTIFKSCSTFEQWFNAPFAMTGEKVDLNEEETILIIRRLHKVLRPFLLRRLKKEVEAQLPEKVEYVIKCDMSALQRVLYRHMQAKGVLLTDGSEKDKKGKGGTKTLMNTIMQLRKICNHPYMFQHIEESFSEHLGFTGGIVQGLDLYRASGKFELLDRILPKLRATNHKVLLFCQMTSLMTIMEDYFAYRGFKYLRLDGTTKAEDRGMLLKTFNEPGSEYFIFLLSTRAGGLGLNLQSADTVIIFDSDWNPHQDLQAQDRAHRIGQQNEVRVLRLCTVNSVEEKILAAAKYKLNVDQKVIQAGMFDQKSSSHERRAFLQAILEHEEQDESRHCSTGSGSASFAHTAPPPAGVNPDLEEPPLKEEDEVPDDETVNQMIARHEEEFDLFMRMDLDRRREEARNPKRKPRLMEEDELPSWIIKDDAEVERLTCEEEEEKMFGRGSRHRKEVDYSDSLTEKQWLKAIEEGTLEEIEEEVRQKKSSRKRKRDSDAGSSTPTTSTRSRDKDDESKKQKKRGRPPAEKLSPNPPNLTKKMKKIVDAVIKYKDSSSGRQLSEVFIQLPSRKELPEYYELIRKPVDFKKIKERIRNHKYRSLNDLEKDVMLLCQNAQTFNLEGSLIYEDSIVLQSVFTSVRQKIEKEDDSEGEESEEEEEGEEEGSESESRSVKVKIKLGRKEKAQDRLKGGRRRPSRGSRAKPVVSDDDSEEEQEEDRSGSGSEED
UniProt Q86U86: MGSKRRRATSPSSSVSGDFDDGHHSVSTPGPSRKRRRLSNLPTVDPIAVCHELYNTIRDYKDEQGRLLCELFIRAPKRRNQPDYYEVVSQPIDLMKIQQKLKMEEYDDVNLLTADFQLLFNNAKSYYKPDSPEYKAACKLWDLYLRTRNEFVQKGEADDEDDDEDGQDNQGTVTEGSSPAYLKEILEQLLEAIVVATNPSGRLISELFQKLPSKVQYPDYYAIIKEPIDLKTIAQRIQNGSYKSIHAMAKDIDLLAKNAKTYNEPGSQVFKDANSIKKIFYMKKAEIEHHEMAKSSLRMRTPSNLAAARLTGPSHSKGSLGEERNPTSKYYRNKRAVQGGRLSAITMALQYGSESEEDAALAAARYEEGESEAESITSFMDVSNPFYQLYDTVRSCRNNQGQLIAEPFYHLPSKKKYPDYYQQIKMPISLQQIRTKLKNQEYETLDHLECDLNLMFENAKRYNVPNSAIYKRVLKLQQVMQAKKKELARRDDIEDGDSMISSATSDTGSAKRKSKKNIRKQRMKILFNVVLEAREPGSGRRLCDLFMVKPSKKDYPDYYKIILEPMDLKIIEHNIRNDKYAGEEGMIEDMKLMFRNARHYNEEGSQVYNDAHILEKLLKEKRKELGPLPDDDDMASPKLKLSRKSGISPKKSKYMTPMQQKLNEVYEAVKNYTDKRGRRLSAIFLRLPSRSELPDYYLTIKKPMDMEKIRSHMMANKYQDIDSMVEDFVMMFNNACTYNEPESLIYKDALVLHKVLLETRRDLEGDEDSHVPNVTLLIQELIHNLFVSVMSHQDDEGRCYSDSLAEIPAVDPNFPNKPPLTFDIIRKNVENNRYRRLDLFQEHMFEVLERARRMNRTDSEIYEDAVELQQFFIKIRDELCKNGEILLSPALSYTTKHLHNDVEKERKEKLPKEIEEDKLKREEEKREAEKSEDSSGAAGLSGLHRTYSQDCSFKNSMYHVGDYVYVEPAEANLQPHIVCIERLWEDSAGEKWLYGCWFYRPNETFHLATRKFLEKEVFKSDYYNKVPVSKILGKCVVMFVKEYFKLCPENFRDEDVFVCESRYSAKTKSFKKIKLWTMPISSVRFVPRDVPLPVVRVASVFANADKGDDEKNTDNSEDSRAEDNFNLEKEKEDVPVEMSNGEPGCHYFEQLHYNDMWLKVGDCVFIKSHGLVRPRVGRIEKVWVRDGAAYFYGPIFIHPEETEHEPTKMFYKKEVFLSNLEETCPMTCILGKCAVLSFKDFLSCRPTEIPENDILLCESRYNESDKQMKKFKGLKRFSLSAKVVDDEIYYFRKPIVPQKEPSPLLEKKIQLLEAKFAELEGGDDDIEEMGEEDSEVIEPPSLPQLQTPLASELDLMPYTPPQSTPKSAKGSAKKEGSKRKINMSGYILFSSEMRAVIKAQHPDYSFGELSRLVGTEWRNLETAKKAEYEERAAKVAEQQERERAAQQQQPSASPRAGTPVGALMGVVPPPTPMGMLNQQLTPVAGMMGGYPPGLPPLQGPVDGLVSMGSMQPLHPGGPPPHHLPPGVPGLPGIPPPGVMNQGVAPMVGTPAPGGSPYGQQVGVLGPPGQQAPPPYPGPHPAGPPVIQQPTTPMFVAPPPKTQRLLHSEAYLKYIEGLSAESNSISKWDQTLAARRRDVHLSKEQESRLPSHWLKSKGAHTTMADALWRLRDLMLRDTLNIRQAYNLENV

Test [1] addresses T1, JMJD2A (endogenous) (human (endogenous in T-47D)) (UniProt O75164).
T1 sequence: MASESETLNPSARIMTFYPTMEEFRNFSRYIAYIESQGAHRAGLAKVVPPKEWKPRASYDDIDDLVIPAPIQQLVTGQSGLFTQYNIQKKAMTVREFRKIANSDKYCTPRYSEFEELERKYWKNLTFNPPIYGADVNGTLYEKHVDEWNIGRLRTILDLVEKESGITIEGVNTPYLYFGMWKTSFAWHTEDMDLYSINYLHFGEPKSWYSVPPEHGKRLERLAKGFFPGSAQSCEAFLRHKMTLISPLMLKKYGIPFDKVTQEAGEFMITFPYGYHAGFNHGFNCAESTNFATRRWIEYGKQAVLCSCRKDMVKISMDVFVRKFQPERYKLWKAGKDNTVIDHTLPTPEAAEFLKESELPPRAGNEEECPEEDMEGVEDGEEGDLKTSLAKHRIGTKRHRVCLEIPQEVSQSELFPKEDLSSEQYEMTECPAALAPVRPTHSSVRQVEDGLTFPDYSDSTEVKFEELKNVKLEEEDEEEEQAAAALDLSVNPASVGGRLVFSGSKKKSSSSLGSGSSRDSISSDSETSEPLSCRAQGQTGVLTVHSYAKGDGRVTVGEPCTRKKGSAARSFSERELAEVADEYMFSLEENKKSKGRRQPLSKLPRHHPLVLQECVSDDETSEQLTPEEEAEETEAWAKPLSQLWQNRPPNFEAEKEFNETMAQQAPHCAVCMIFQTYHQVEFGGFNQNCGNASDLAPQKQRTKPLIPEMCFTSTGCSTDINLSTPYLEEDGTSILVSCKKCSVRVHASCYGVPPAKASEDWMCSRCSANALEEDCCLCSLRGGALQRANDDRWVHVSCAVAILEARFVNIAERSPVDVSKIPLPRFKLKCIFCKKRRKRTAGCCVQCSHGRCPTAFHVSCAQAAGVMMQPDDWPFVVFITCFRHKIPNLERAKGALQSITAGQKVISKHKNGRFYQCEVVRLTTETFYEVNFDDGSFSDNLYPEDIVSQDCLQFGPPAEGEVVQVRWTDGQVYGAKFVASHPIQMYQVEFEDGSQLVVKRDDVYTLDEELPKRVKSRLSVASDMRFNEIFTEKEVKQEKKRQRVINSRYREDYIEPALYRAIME
Kind of test: co-IP; nuclear lysates of T-47D cells immunoprecipitated with control IgG or antibodies to endogenous proteins on protein A magnetic beads, 4°C overnight, NP-40 IP lysis buffer (50 mM Tris-HCl pH 7.6, 150 mM NaCl, 1% NP-40, 1 mM EDTA), sonicated; with or without estrogen stimulation; with or without Benzonase.

Test [2] concerns the target JMJD2B (endogenous) (human (endogenous in T-47D)) (UniProt O94953). The description is as above.
The target of test [3] is T2, JMJD2C (endogenous) (human (endogenous in T-47D)) (UniProt Q9H3R0).
T2 sequence: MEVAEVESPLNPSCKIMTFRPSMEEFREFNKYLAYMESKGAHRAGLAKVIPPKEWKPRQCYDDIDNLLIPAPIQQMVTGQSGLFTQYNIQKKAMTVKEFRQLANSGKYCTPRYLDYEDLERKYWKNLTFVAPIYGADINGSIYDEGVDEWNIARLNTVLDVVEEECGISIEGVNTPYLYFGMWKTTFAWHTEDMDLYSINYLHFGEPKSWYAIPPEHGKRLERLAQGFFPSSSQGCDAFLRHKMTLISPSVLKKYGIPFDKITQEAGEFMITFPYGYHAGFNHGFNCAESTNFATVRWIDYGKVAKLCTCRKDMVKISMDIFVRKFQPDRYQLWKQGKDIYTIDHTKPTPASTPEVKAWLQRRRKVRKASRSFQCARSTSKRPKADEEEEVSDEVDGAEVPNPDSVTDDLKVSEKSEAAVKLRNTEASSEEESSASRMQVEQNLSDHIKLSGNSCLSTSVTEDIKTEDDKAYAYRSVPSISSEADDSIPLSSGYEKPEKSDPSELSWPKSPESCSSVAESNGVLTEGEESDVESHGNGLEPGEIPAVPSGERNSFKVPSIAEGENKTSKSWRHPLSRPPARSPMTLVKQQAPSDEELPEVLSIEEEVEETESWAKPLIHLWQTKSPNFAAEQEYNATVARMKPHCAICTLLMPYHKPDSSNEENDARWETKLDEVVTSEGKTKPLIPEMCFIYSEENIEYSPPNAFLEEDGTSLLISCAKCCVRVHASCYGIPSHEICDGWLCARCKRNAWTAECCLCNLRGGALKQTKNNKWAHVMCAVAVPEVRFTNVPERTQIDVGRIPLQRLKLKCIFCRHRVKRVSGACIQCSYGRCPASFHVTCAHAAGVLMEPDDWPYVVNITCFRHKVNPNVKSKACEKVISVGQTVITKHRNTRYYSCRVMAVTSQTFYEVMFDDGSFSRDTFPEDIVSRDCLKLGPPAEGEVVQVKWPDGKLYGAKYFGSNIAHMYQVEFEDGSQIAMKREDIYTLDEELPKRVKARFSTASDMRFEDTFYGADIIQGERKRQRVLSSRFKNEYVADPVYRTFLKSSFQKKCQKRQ
The test is described as above.

In another test the target is MYC-tagged ERα (UniProt P03372). Kind of test: co-IP; 293T cells co-transfected with FLAG-JMJD2B (or FLAG-ΔFeJMJD2B) and MYC-ERα or empty vector; α-MYC immunoprecipitates blotted with α-FLAG antibody.

Results are given in words; binding and its absence hold for the method and conditions named. Binding seen in cells or lysates may run through a third protein. Some entries that bind do so weakly or less than the wild type.

As to “BRG1 ATPase (from UniProt P51532 1-1647)”, the binding entry in test [1], in test [2] and in test [3] was “binds” throughout.
Regarding “ERα (endogenous) (from UniProt P03372 1-595) (receptor)”, the binding result in test [1], in test [2] and in test [3] was “binds” throughout.
As to “FLAG-tagged JMJD2B (from UniProt O94953 1-1096)”, in the test with MYC-tagged ERα, the binding entry is reported as “binds”.
As for “FLAG-ΔFeJMJD2B (from UniProt O94953 1-1096)”, in the test with MYC-tagged ERα, the binding result is “binds”.
Polybromo1 (from UniProt Q86U86 1-1689): the binding entry in test [1], in test [2] and in test [3] was “binds” throughout.
Turning to p300 (from UniProt Q09472 1-2414), the binding result in test [2] is recorded as “no binding”.
